Experimental data from PubChem BioAssay AID651640 (Broad Institute, 2012).
Several values for one entry are separate records, joined by “and”; a condition that tells them apart may be missing. Equal values may be shown once. Among all 350,000 compounds or so, about 6,000 (1.7%) were called active. The inconclusive results got no clear call from the source; some entries with a clear call stand among them for comparison. Rule as the data show it: active = CPE inhibition above about 20% (passing the limit was not always enough); inconclusive = no clear call, values can overlap the other calls; tested in BHK-21 cells.

Test: protection of cells from dengue 2 killing – plate reader, single concentration, primary screen (AID 651640);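 also: 0% = median of neutral control wells and 100% = median of positive control wells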
Details: DENV2-infected cells, cytopathic effect rescue, at 9.99 µM, active compounds read high

Which CPE inhibition does the source give for `O=c1[nH]c(=S)[nH]c2c1C(c1ccc(Cl)c(Cl)c1)OC(CCc1ccccc1)C2` (configuration not stated) here?
The CPE inhibition was inactive: 18.5%.

For `COc1ccc(S(=O)(=O)N2CCN(CCc3ccccc3)CC2)c(OC)c1`, which CPE inhibition is on record?
The CPE inhibition was inconclusive: 26.6%.

Which CPE inhibition does the source give for `CCC(=O)N1[C@H](CO)[C@H]2c3ccccc3N(C(=O)c3ccccc3F)C[C@H]21` here?
Its CPE inhibition is inactive: 3.85%.

With `C[C@]1(C(=O)NCCN2CCOCC2)C=C[C@@H](Cc2ccccc2)N1C(=O)c1ccccc1` as the molecule, how does the CPE inhibition read?
The CPE inhibition was inconclusive: 25.2%.

Which CPE inhibition does the source give for `CN(C)c1ccc(/C=C2\SC(=O)N(CCc3nnc(N)s3)C2=O)cc1` here?
The CPE inhibition was inactive: -8.34%.

With `C[C@H](CO)N1C[C@H](C)[C@@H](CN(C)CC2CCOCC2)Oc2cc(-c3cccnc3)ccc2S1(=O)=O` as the molecule, how does the CPE inhibition read?
Its CPE inhibition is inactive: 2.88%.

For `O=C(C[C@H]1CC[C@H](NC(=O)Cc2cccnc2)[C@H](CO)O1)Nc1ccccc1`, which CPE inhibition is on record?
Its CPE inhibition is inactive: 3.7%.

With `COC(=O)c1cnn(-c2ccccc2)c1N` as the molecule, how does the CPE inhibition read?
Its CPE inhibition is inconclusive: 21%.

Which CPE inhibition does the source give for `CNC[C@H]1Oc2c(NC(=O)c3ccc(-c4nccs4)cc3)cccc2C(=O)N([C@H](C)CO)C[C@H]1C` here?
The CPE inhibition was active: 40.8%.

Which CPE inhibition does the source give for `O=C(CSc1nnnn1-c1ccccc1)NC(=O)Cc1ccccc1` here?
The CPE inhibition was inconclusive: 34.8%.

With `Nc1ncc(-c2ccc([N+](=O)[O-])cc2)cn1` as the molecule, how does the CPE inhibition read?
The CPE inhibition was inconclusive: 64.5%.

With `N#C[C@H]1[C@H](c2ccccc2C2=CCCCC2)[C@@H](CO)N1S(=O)(=O)c1cccc(F)c1` as the molecule, how does the CPE inhibition read?
The CPE inhibition was active: 31.2%.

With `COc1ccc(CCCC(=O)N/N=C\c2cccs2)cc1` as the molecule, how does the CPE inhibition read?
Its CPE inhibition is inactive: -1.54%.

With `Cc1c(C(C)CCCO)oc(=O)c2c1Oc1c(C)c(C(C)C[C@@H](C)O)oc(=O)c1C2` (some centres not stated) as the molecule, how does the CPE inhibition read?
The CPE inhibition was inconclusive: 45.4%.

For `Cc1ccc(CN(C)C[C@H]2OCc3cnnn3CCCC(=O)N([C@H](C)CO)C[C@@H]2C)cc1`, which CPE inhibition is on record?
The CPE inhibition was inconclusive: 24.2% and inconclusive: 67.3%.

With `Cc1c(NS(=O)(=O)c2cc(C(=O)NCc3cccc(Cl)c3)ccc2Cl)c(=O)n(-c2ccccc2)n1C` as the molecule, how does the CPE inhibition read?
The CPE inhibition was inconclusive: 32.7%.

Which CPE inhibition does the source give for `CCN(CC)Cc1cc(O)c(CN(CC)CC)cc1O` here?
The CPE inhibition was inconclusive: 24.4%.

With `COC(=O)c1ccc(S(=O)(=O)N2CCc3ccccc32)cc1` as the molecule, how does the CPE inhibition read?
Its CPE inhibition is inactive: -5.85%.

For `COC(=O)c1ccc(/C=C2/SC(=S)N(CCC(=O)N3CCOCC3)C2=O)cc1`, which CPE inhibition is on record?
Its CPE inhibition is inconclusive: 50.4%.

With `O=C(C[C@@H]1CC[C@@H](NC(=O)Cc2ccccn2)[C@@H](CO)O1)NCCc1ccccc1` as the molecule, how does the CPE inhibition read?
Its CPE inhibition is inconclusive: 41.9%.

For `CCS(=O)(=O)N1CCCCN2[C@H](CO)[C@H](c3ccc(-c4ccc(C#N)cc4)cc3)[C@@H]2C1`, which CPE inhibition is on record?
The CPE inhibition was inactive: -1.48%.

For `CC(=O)N/C(=C\c1ccc(C)cc1)C(=O)O`, which CPE inhibition is on record?
The CPE inhibition was inconclusive: 21.4%.
